{
  "source": "the supplement of paper PMC8728848",
  "assay_in_all_cases": "glycan array binding signal (z-score within array); higher = stronger binding",
  "conditions_in_all_cases": "glycan notation: IUPAC condensed, linker removed",
  "key": {"Gal6S(b1-4)Glc": {"biological_target": "Gal6S(b1-4)Glc", "how_it_was_run": "(§1)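 Columns mapping to the same glycan were averaged after glycan names were converted to IUPAC-condensed notation. The data come from 3228 arrays in the Consortium for Functional Glycomics database, limited to those with an available protein sequence. Binding is reported as a within-array Z-score averaged across arrays of one protein sequence and across linkers.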"}, "Gal6S(b1-4)Glc6S": {"biological_target": "Gal6S(b1-4)Glc6S", "how_it_was_run": "as §1"}, "Gal6S(b1-4)GlcNAc": {"biological_target": "Gal6S(b1-4)GlcNAc", "how_it_was_run": "as §1"}, "Gal6S(b1-4)GlcNAc6S": {"biological_target": "Gal6S(b1-4)GlcNAc6S", "how_it_was_run": "as §1"}, "GalNAc(a1-3)Gal": {"biological_target": "GalNAc(a1-3)Gal", "how_it_was_run": "as §1"}, "GalNAc(a1-3)GalNAc": {"biological_target": "GalNAc(a1-3)GalNAc", "how_it_was_run": "as §1"}, "[1]": {"biological_target": "GalNAc(a1-3)GalNAc(b1-3)Gal(a1-4)Gal(b1-4)Glc", "how_it_was_run": "as §1"}, "[2]": {"biological_target": "GalNAc(a1-3)GalNAc(b1-3)Gal(a1-4)Gal(b1-4)GlcNAc", "how_it_was_run": "as §1"}, "GalNAc(b1-3)Gal": {"biological_target": "GalNAc(b1-3)Gal", "how_it_was_run": "as §1"}, "[3]": {"biological_target": "GalNAc(b1-3)Gal(a1-4)Gal(b1-4)GlcNAc", "how_it_was_run": "as §1"}, "[4]": {"biological_target": "GalNAc(b1-3)Gal(a1-4)Gal(b1-4)GlcNAc(b1-3)Gal(b1-4)Glc", "how_it_was_run": "as §1"}, "[5]": {"biological_target": "GalNAc(b1-3)Gal(a1-6)Gal(b1-4)Glc", "how_it_was_run": "as §1"}, "GalNAc(b1-3)GalNAc": {"biological_target": "GalNAc(b1-3)GalNAc", "how_it_was_run": "as §1"}, "GalNAc(b1-3)GlcNAc": {"biological_target": "GalNAc(b1-3)GlcNAc", "how_it_was_run": "as §1"}, "GalNAc(b1-4)Gal(b1-4)Glc": {"biological_target": "GalNAc(b1-4)Gal(b1-4)Glc", "how_it_was_run": "as §1"}, "GalNAc(b1-4)GlcNAc": {"biological_target": "GalNAc(b1-4)GlcNAc", "how_it_was_run": "as §1"}, "[6]": {"biological_target": "GalNAc(b1-4)GlcNAc(b1-2)Man", "how_it_was_run": "as §1"}, "[7]": {"biological_target": "GalNAc(b1-4)GlcNAc(b1-2)Man(a1-3)[GalNAc(b1-4)GlcNAc(b1-2)Man(a1-6)]Man(b1-4)GlcNAc(b1-4)GlcNAc", "how_it_was_run": "as §1"}, "[8]": {"biological_target": "GalNAc(b1-4)GlcNAc(b1-3)GalNAc(b1-4)GlcNAc", "how_it_was_run": "as §1"}, "GalNAc(b1-4)GlcNAc6S": {"biological_target": "GalNAc(b1-4)GlcNAc6S", "how_it_was_run": "as §1"}, "GalNAc(b1-6)GalNAc": {"biological_target": "GalNAc(b1-6)GalNAc", "how_it_was_run": "as §1"}, "GalNAc3S(b1-4)GlcNAc": {"biological_target": "GalNAc3S(b1-4)GlcNAc", "how_it_was_run": "as §1"}, "GalNAc3S(b1-4)GlcNAc3S": {"biological_target": "GalNAc3S(b1-4)GlcNAc3S", "how_it_was_run": "as §1"}, "[9]": {"biological_target": "GalNAc3S(b1-4)[Fuc(a1-3)]GlcNAc", "how_it_was_run": "as §1"}, "GalNAc4S6S(b1-4)GlcNAc": {"biological_target": "GalNAc4S6S(b1-4)GlcNAc", "how_it_was_run": "as §1"}, "GalNAc6S(b1-4)GlcNAc": {"biological_target": "GalNAc6S(b1-4)GlcNAc", "how_it_was_run": "as §1"}, "Glc(a1-4)Glc": {"biological_target": "Glc(a1-4)Glc", "how_it_was_run": "as §1"}, "[10]": {"biological_target": "Glc(a1-4)Glc(a1-4)Glc(a1-4)Glc", "how_it_was_run": "as §1"}, "Glc(a1-6)Glc(a1-6)Glc": {"biological_target": "Glc(a1-6)Glc(a1-6)Glc", "how_it_was_run": "as §1"}, "[11]": {"biological_target": "Glc(a1-6)Glc(a1-6)Glc(a1-6)Glc", "how_it_was_run": "as §1"}, "Glc(b1-4)Glc": {"biological_target": "Glc(b1-4)Glc", "how_it_was_run": "as §1"}, "Glc(b1-6)Glc": {"biological_target": "Glc(b1-6)Glc", "how_it_was_run": "as §1"}, "GlcA(b1-3)Gal": {"biological_target": "GlcA(b1-3)Gal", "how_it_was_run": "as §1"}, "GlcA(b1-3)GlcNAc": {"biological_target": "GlcA(b1-3)GlcNAc", "how_it_was_run": "as §1"}, "GlcA(b1-6)Gal": {"biological_target": "GlcA(b1-6)Gal", "how_it_was_run": "as §1"}, "[12]": {"biological_target": "GlcA3S(b1-3)Gal(b1-4)GlcNAc(b1-2)Man", "how_it_was_run": "as §1"}, "[13]": {"biological_target": "GlcA3S(b1-3)Gal(b1-4)GlcNAc(b1-3)Gal(b1-4)Glc", "how_it_was_run": "as §1"}, "[14]": {"biological_target": "GlcNAc(a1-3)Gal(b1-4)GlcNAc", "how_it_was_run": "as §1"}, "[15]": {"biological_target": "GlcNAc(a1-4)Gal(b1-3)GlcNAc", "how_it_was_run": "as §1"}, "[16]": {"biological_target": "GlcNAc(a1-4)Gal(b1-4)GalNAc", "how_it_was_run": "as §1"}, "[17]": {"biological_target": "GlcNAc(a1-4)Gal(b1-4)GlcNAc", "how_it_was_run": "as §1"}, "[18]": {"biological_target": "GlcNAc(a1-4)Gal(b1-4)GlcNAc(b1-3)Gal(b1-4)Glc", "how_it_was_run": "as §1"}, "[19]": {"biological_target": "GlcNAc(a1-4)Gal(b1-4)GlcNAc(b1-3)Gal(b1-4)GlcNAc", "how_it_was_run": "as §1"}, "[20]": {"biological_target": "GlcNAc(a1-4)Gal(b1-4)GlcNAc(b1-3)Gal(b1-4)GlcNAc(b1-3)Gal(b1-4)GlcNAc", "how_it_was_run": "as §1"}, "[21]": {"biological_target": "GlcNAc(a1-4)Gal(b1-4)GlcNAc(b1-3)Gal(b1-4)[Fuc(a1-3)]GlcNAc(b1-3)Gal(b1-4)[Fuc(a1-3)]GlcNAc", "how_it_was_run": "as §1"}},
  "note": "The other results are listed elsewhere or left out.",
  "data": [
    {"binder": "HA-61200 (Pseudomonas aeruginosa), Q02SP8_PSEAB (protein) MNKCYALVWNVSQGCWNVVSEGSRRRGKPAGAKAAIASVLALLGATALAPAYALPSGGTVVGGSANGEIHLSGGNSLSVNQKVDKLIANWDSFSVAAGERVIFNQPSSSSIALNRVIGTKASDIQGRIDANGQVFLVNPNGVLFGRGAQVNVGGLVASTLDITDAEFNGNSSRYRFTGPSTNGVLNHGGAITAAEGGSIALLGAQVDNRGTVLAQMGGVGLGAGSDLTLNFDGNKLLDIRVDAGVANALASNGGLLKADGGRVLMAARTANALLNTVVNSQGAIEARSLRGKNGRIVLDG", "values": [
      {"measurement": "glycan array binding signal (z-score)", "setting": "Gal6S(b1-4)Glc", "value": -0.001},
      {"measurement": "glycan array binding signal (z-score)", "setting": "Gal6S(b1-4)Glc6S", "value": -1.37},
      {"measurement": "glycan array binding signal (z-score)", "setting": "Gal6S(b1-4)GlcNAc", "value": 0.328},
      {"measurement": "glycan array binding signal (z-score)", "setting": "Gal6S(b1-4)GlcNAc6S", "value": -0.661},
      {"measurement": "glycan array binding signal (z-score)", "setting": "GalNAc(a1-3)Gal", "value": -0.485},
      {"measurement": "glycan array binding signal (z-score)", "setting": "GalNAc(a1-3)GalNAc", "value": 0.174},
      {"measurement": "glycan array binding signal (z-score)", "setting": "[1]", "value": 0.612},
      {"measurement": "glycan array binding signal (z-score)", "setting": "[2]", "value": -0.259},
      {"measurement": "glycan array binding signal (z-score)", "setting": "GalNAc(b1-3)Gal", "value": 0.635},
      {"measurement": "glycan array binding signal (z-score)", "setting": "[3]", "value": 0.021},
      {"measurement": "glycan array binding signal (z-score)", "setting": "[4]", "value": 0.599},
      {"measurement": "glycan array binding signal (z-score)", "setting": "[5]", "value": -0.559},
      {"measurement": "glycan array binding signal (z-score)", "setting": "GalNAc(b1-3)GalNAc", "value": -0.83},
      {"measurement": "glycan array binding signal (z-score)", "setting": "GalNAc(b1-3)GlcNAc", "value": -0.596},
      {"measurement": "glycan array binding signal (z-score)", "setting": "GalNAc(b1-4)Gal(b1-4)Glc", "value": -0.358},
      {"measurement": "glycan array binding signal (z-score)", "setting": "GalNAc(b1-4)GlcNAc", "value": 0.059},
      {"measurement": "glycan array binding signal (z-score)", "setting": "[6]", "value": 0.747},
      {"measurement": "glycan array binding signal (z-score)", "setting": "[7]", "value": 1},
      {"measurement": "glycan array binding signal (z-score)", "setting": "[8]", "value": 0.103},
      {"measurement": "glycan array binding signal (z-score)", "setting": "GalNAc(b1-4)GlcNAc6S", "value": 0.535},
      {"measurement": "glycan array binding signal (z-score)", "setting": "GalNAc(b1-6)GalNAc", "value": 0.071},
      {"measurement": "glycan array binding signal (z-score)", "setting": "GalNAc3S(b1-4)GlcNAc", "value": -0.608},
      {"measurement": "glycan array binding signal (z-score)", "setting": "GalNAc3S(b1-4)GlcNAc3S", "value": -0.53},
      {"measurement": "glycan array binding signal (z-score)", "setting": "[9]", "value": -0.736},
      {"measurement": "glycan array binding signal (z-score)", "setting": "GalNAc4S6S(b1-4)GlcNAc", "value": -0.044},
      {"measurement": "glycan array binding signal (z-score)", "setting": "GalNAc6S(b1-4)GlcNAc", "value": -0.145},
      {"measurement": "glycan array binding signal (z-score)", "setting": "Glc(a1-4)Glc", "value": 0.046},
      {"measurement": "glycan array binding signal (z-score)", "setting": "[10]", "value": -0.354},
      {"measurement": "glycan array binding signal (z-score)", "setting": "Glc(a1-6)Glc(a1-6)Glc", "value": -0.164},
      {"measurement": "glycan array binding signal (z-score)", "setting": "[11]", "value": -0.738},
      {"measurement": "glycan array binding signal (z-score)", "setting": "Glc(b1-4)Glc", "value": -0.505},
      {"measurement": "glycan array binding signal (z-score)", "setting": "Glc(b1-6)Glc", "value": -0.682},
      {"measurement": "glycan array binding signal (z-score)", "setting": "GlcA(b1-3)Gal", "value": -0.781},
      {"measurement": "glycan array binding signal (z-score)", "setting": "GlcA(b1-3)GlcNAc", "value": -0.297},
      {"measurement": "glycan array binding signal (z-score)", "setting": "GlcA(b1-6)Gal", "value": 0.41},
      {"measurement": "glycan array binding signal (z-score)", "setting": "[12]", "value": -0.103},
      {"measurement": "glycan array binding signal (z-score)", "setting": "[13]", "value": -1.04},
      {"measurement": "glycan array binding signal (z-score)", "setting": "[14]", "value": -1.02},
      {"measurement": "glycan array binding signal (z-score)", "setting": "[15]", "value": -0.514},
      {"measurement": "glycan array binding signal (z-score)", "setting": "[16]", "value": 0.631},
      {"measurement": "glycan array binding signal (z-score)", "setting": "[17]", "value": -0.006},
      {"measurement": "glycan array binding signal (z-score)", "setting": "[18]", "value": -1.35},
      {"measurement": "glycan array binding signal (z-score)", "setting": "[19]", "value": -0.622},
      {"measurement": "glycan array binding signal (z-score)", "setting": "[20]", "value": 0.386},
      {"measurement": "glycan array binding signal (z-score)", "setting": "[21]", "value": -0.389}
    ]}
  ]
}
